PMC10239115

Target: T1, Flag-tagged Kremen2 (Kringle containing transmembrane protein 2) (UniProt Q8NCW0)
T1 sequence: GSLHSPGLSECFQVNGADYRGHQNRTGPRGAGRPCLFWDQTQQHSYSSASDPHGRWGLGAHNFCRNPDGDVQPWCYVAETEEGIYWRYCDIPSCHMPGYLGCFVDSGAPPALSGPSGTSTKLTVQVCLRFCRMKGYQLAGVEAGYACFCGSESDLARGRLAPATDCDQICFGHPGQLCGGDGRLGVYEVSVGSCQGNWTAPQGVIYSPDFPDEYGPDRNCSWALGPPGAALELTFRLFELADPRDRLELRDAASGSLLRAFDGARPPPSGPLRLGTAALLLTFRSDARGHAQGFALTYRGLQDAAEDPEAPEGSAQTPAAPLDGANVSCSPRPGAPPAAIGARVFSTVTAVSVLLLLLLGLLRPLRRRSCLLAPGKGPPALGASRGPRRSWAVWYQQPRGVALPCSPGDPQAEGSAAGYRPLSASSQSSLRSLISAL
Test: co-IP; HEK293T transfected with Flag-Krm2; lysate in IP lysis buffer incubated with protein A/G magnetic beads and anti-Flag or normal IgG overnight at 4 °C; blots for EGFR, AKT, STAT3, SOCS3

AKT, endogenous in HEK293T (human (endogenous in HEK293T)) (enzyme)
binding: no binding

These are yes or no findings as the source states them, for the method shown. In cells and extracts the contact can be indirect. Tags and fused reporters may be left off the sequences shown.
